For 14 compounds, survivor count and T/C results are on record in PubChem BioAssay AID248 (DTP/NCI, 2004).

The list does not hold the whole screen: it is rich in T/C values a quarter to a half above the control, in often repeated tests (any T/C) and in doses without a T/C. Other doses and runs of a compound stand elsewhere. T/C gives the treated animals as a percentage of the vehicle group. Some entries give survivors of the animals treated and no T/C: the source holds a T/C of zero for them, seemingly a mark for toxic or unscored doses. Some survivor counts are full or nearly so, which does not show that the dose was tolerated: the source hardly ever lists a survival T/C far under the control, and the zero likely stands for such cases as well. Counts of survivors are from the toxicity check (mostly the fifth day) where no day follows; animals may have died later. Schedules are NCI's codes, read here as Q, the interval in days (D) or hours (H), X, the number of doses. Where survival is the endpoint, this PubChem deposit counts one and a half times the control or more as active, and values a quarter to a half above the control carry no call in these data; other NCI protocols may use other cut-offs. Some entries hold several experiments; the results are listed from low to high. Some T/C values carry the count of animals alive at the toxicity check (mostly the fifth day); where none is given, no animal had died by that day.

The subject of the test is L1210 leukemia ip in BDF1 mice, survival T/C. In words: NCI In Vivo Anticancer Drug Screen. Data for tumor model L1210 Leukemia (intraperitoneal) in B6D2F1 (BDF1) mice. The note with it: T/C endpoint: mean survival time, higher T/C = longer survival.
Setting [1] is: dose: 400.0 mg/kg/injection, schedule: Q04DX003 (ip), vehicle: saline with Tween-80.
[2] abbreviates: dose: 400.0 mg/kg/injection, schedule: Q01DX001 (ip), vehicle: saline.
Setting [3] is: dose: 200.0 mg/kg/injection, schedule: Q01DX001 (ip), vehicle: Klucel (hydroxypropylcellulose) (HPC).
The mark [4] stands for this setting: dose: 400.0 mg/kg/injection, schedule: Q01DX001 (ip), vehicle: Klucel (hydroxypropylcellulose) (HPC).
Setting [5] is: dose: 100.0 mg/kg/injection, schedule: Q01DX009 (ip), vehicle: saline.
[6] abbreviates: dose: 200.0 mg/kg/injection, schedule: Q01DX009 (ip), vehicle: Klucel (hydroxypropylcellulose) (HPC).
Where [7] appears, read: dose: 100.0 mg/kg/injection, schedule: Q01DX001 (ip), vehicle: saline.

With `c1cnc2sccc2c1`, the survivor count by setting is: (dose: 200.0 mg/kg/injection, schedule: Q01DX009 (ip), vehicle: saline with Tween-80) 3 of 6; under setting [1], 0 of 6.

Turning to `O=CCc1ccc2c(c1)OCO2`, the survivor count (dose: 100.0 mg/kg/injection, schedule: Q01DX001 (ip), vehicle: carboxymethylcellulose (CMC)) was 4 of 4.

`CCOCCN=Cc1ccccc1O.CCOCCN=Cc1ccccc1O.[Co]`: the survivor count under setting [2] is listed as 0 of 6.

As to `O=C1C(Cl)=CC(Cl)=C/C1=N/Cl`, the survivor count by setting is: under setting [3], 3 of 3; under setting [4], 3 of 3.

With `COc1ccc2nc3cc(Cl)ccc3c(NCCCSCCCl)c2n1`, the T/C (dose: 4.0 mg/kg/injection, schedule: Q01DX009 (ip), vehicle: saline) is 125 % of control. The survivor count is recorded as 3 of 6 (dose: 16.0 mg/kg/injection, schedule: Q01DX009 (ip), vehicle: saline); 1 of 6 (dose: 25.0 mg/kg/injection, schedule: Q01DX009 (ip), vehicle: saline); 2 of 6 (dose: 50.0 mg/kg/injection, schedule: Q01DX009 (ip), vehicle: saline); 3 of 6 (dose: 75.0 mg/kg/injection, schedule: Q01DX009 (ip), vehicle: saline); 0 of 6 under setting [5].

Take `Cc1ccccc1/C=N/NC(=O)c1cccc2ccccc12`: the survivor count under setting [2] is given as 4 of 4.

Turning to `CNc1n[n+](-c2ccccc2)no1`, the survivor count under setting [5] was 0 of 6; the survivor count (dose: 200.0 mg/kg/injection, schedule: Q01DX009 (ip), vehicle: saline) is given as 0 of 6; the survivor count (dose: 200.0 mg/kg/injection, schedule: Q04DX003 (ip), vehicle: saline) is 1 of 6; the survivor count (dose: 400.0 mg/kg/injection, schedule: Q04DX003 (ip), vehicle: saline) is 0 of 6.

In the case of `CCOP(=S)(OCC)S/C(C(=O)NC)=C(/C)O`, the survivor count reads like this: (dose: 25.0 mg/kg/injection, schedule: Q01DX009 (ip), vehicle: Klucel (hydroxypropylcellulose) (HPC)) 0 of 3; (dose: 50.0 mg/kg/injection, schedule: Q01DX009 (ip), vehicle: Klucel (hydroxypropylcellulose) (HPC)) 0 of 3; (dose: 100.0 mg/kg/injection, schedule: Q01DX009 (ip), vehicle: Klucel (hydroxypropylcellulose) (HPC)) 0 of 3; under setting [6], 0 of 3. In addition, the T/C (dose: 400.0 mg/kg/injection, schedule: Q04DX003 (sc), vehicle: olive oil, sesame oil, peanut oil) was 126 % of control [5 of 6 alive].

As to `Nc1nc(Nc2ccc(NC=O)cc2)c(NC=O)c(=O)[nH]1`, under setting [7], the survivor count was 6 of 6.

For `O=C(NC(=S)Nc1cccc(Cl)c1)c1ccccc1F`, the survivor count reads like this: under setting [6], 6 of 6; (dose: 400.0 mg/kg/injection, schedule: Q01DX009 (ip), vehicle: Klucel (hydroxypropylcellulose) (HPC)) 6 of 6.

Consider `Cc1ccc(C(C)NC2=NCCO2)c(C)c1` (centres undefined), for which the survivor count is recorded as 1 of 6 (dose: 200.0 mg/kg/injection, schedule: Q04DX003 (ip), vehicle: saline with Tween-80) and 0 of 6 under setting [1].

In the case of `O=C(O)c1ccc(/C=N/NC(=S)Nc2cccc3cccnc23)cc1`, the survivor count under setting [7] is given as 4 of 4.

In the case of `CC(=O)[O][Hg][c]1c(N)c(Cl)cc(C)c1F`, the survivor count (dose: 40.0 mg/kg/injection, schedule: Q01DX001 (ip), vehicle: Klucel (hydroxypropylcellulose) (HPC)) is listed as 0 of 6; the survivor count (dose: 100.0 mg/kg/injection, schedule: Q01DX001 (ip), vehicle: Klucel (hydroxypropylcellulose) (HPC)) was 0 of 6; the survivor count under setting [3] was 0 of 6; the survivor count under setting [4] is given as 1 of 6.

For `CCOC(=O)c1nc(SC)n(Cc2ccccc2)c1C(=O)OCC`, the T/C was 98, 101, 105, 125 % of control (dose: 100.0 mg/kg/injection, schedule: Q04DX002 (ip), vehicle: saline with Tween-80) and 90, 101, 102, 106 % of control (dose: 200.0 mg/kg/injection, schedule: Q04DX002 (ip), vehicle: saline with Tween-80).
